From article PMC7997989
Where a chain is given by its changes, count along the chain named. These are yes or no findings as the source states them, for the method shown. In cells and extracts the contact can be indirect. Some binding calls cover weakened binding; strength is not graded here. Where a sequence is shown, tags or fusion partners need not be part of it.

By UniProt entry, the sequences of proteins in these tests, tags left out.
UniProt Q13148: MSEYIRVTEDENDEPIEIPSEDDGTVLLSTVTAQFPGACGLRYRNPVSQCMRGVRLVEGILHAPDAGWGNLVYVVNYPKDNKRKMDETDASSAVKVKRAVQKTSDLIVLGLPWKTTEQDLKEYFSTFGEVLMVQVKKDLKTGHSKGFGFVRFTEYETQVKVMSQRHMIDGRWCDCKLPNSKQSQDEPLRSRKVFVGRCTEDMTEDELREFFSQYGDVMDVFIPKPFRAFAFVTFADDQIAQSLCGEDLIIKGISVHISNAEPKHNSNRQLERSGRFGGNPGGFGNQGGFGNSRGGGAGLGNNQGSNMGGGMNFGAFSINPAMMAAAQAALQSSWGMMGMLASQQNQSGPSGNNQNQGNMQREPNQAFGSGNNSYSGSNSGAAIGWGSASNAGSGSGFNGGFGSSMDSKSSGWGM

Legend:
[1] = target: T1, CHCHD10^S59L-FLAG (human) (UniProt Q8WYQ3); experiment: co-IP; HEK293T cells co-transfected with CHCHD10-FLAG (WT or S59L) and TDP-43-tomato-HA; NP-40 lysis buffer (20 mM Tris, 137 mM NaCl, 1% NP-40, 2 mM EDTA), sonicated; anti-FLAG M2 affinity gel overnight at 4 °C; blots with anti-FLAG and anti-HA
T1 sequence: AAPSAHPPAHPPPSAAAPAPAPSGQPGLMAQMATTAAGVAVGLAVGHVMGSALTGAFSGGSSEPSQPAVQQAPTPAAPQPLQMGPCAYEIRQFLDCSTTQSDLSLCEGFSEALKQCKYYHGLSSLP

CHCHD10^WT-FLAG (human) = target: T2, CHCHD10^WT-FLAG (human) (UniProt Q8WYQ3); experiment: as above
T2 sequence: T1 sequence with L43S

[2] = target: T3, CHCHD10-HA (S59L) (human) (UniProt Q8WYQ3); experiment: co-IP; HEK293T cells co-transfected with HA-tagged CHCHD10 (WT or S59L) and TDP-43-FLAG; NP-40 lysis buffer; anti-FLAG M2 or anti-HA affinity gel overnight at 4 °C (which gel is not told)
T3 sequence: T1 sequence

CHCHD10-HA (WT) (human) = target: T4, CHCHD10-HA (WT) (human) (UniProt Q8WYQ3); experiment: as above
T4 sequence: T1 sequence with L43S

binding [1]	binding (CHCHD10^WT-FLAG (human))	binding [2]	binding (CHCHD10-HA (WT) (human))	Substance
binds	binds			TDP-43-tomato-HA (from UniProt Q13148 1-414)
		binds	binds	TDP-43-FLAG (from UniProt Q13148 1-414)
